Source: PubChem BioAssay AID2685 (National Center for Advancing Translational Sciences (NCATS), 2010)
Several values for one entry are separate records, joined by “and”; a condition that tells them apart may be missing. Identical values can stand only once. This is one part of the list. The main result of the screen is listed elsewhere. These columns were measured beside it and carry no call. Most of these compounds were active or inconclusive in the main read-out, so they are no random draw. The note in brackets gives the kind of curve behind each potency; many fits are weak.

Test: qHTS Assay for Lipid Storage Modulators in Drosophila S3 Cells;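 on cell number change: cells counted by Cell Tracker Red CMTPX staining in the red channel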
Settings: BODIPY lipid droplet fluorescence, 18-24 h; for cell number change: measured here: cell count max response, cells fed with added oleic acid
Outline: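 Drosophila S3 cells loaded with oleic acid (400 uM, as added) and compounds at several concentrations; lipid droplets imaged by 488-nm laser-scanning cytometry, 500–530 nm intensity and object ratio to cell channel. Percent activity normalized to 20 uM Triacsin C.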

[1] = measured here: cell number channel AC50, cells fed with added oleic acid
[2] = measured here: lipid fluorescence (Fed channel) AC50, cells fed with added oleic acid

Compound	AC50 [1]	AC50 [2]	cell number change
Cn1c2c(c(=O)n(C)c1=O)C(C(F)(F)F)(C(F)(F)F)N=C(CCC1CCCCC1)N2	6.51 µM [rising, single point]	2.06 µM [rising, partial curve]	–
COCCC(=O)N1CCC(Oc2ccc(C(=O)NCCC3=CCCCC3)cc2)CC1	–	4.11 µM [rising, single point]	–
CCN(CC)CCCNC(=O)CNC(=S)N(CCCN1CCOCC1)Cc1cccs1	0.731 µM [rising, partial curve, poor fit]	–	-4.15%
CCCCN(C(=O)c1ccc(N2CCCC2=O)cc1)c1c(N)n(CC(C)C)c(=O)[nH]c1=O	–	–	2.34%
O=[N+]([O-])c1ccc(C2Oc3ccccc3C3CC(c4ccccc4)=NN32)s1 (stereo not drawn)	2.91 µM [rising, single point]	3.66 µM [rising, single point]	-16.1%
Cc1c(NC(=O)c2ccc(COc3ccc4ccccc4c3)o2)c(=O)n(-c2ccccc2)n1C	–	–	1.36%
COc1cc(NC(=O)CN2C(=O)NC(c3ccccc3)(c3ccccc3)C2=O)cc(OC)c1	–	29.1 µM [rising, single point]	29.8%
CC(=O)NC(Cc1ccc(F)cc1)C(=O)NC1CCN(C(=O)Nc2ccc(F)cc2)CC1 (stereo not drawn)	1.84 µM [rising, partial curve, poor fit]	6.51 µM [falling, single point]	17.8%
O=C(N/C(=C/c1ccco1)C(=O)N1CCCC1)c1cccs1	29.1 µM [falling, single point]	13 µM [falling, partial curve, poor fit]	-31.1%
CC(Nc1nc(N2CCCCC2)nc2ccccc12)c1ccccc1 (stereo not drawn)	1.03 µM [rising, full curve, poor fit]	29.1 µM [falling, single point]	–
O=C(NCc1ccccc1)c1onc(CSc2ccccn2)c1C(=O)NCc1ccccc1	–	6.51 µM [rising, single point]	-0.992%
Cc1cc(C)c[n+](-c2nc3ccccc3nc2C(=C=[N-])C#N)c1	–	29.1 µM [rising, single point]	-6.89% and -15.3%
CNC(=S)NCC(O)c1ccc([N+](=O)[O-])cc1 (stereo not drawn)	–	–	8.55%
O=C1CCCC(=NCc2ccco2)C1	–	1.16 µM [falling, full curve, poor fit]	11.9%
COc1cc(OC)nc(NC(=O)C(C)C)n1	–	16.4 µM [falling, single point]	-12%
CCOCCn1c(C)c(C(=O)OCC)c2cc(O)c3ccccc3c21	14.6 µM [falling, partial curve]	4.11 µM [falling, single point]	-50.6%
NC(=O)COC(=O)CCCc1c[nH]c2ccccc12	0.058 µM [falling, full curve, poor fit]	–	-15.1%
C=CCNC(=O)C1CCN(S(C)(=O)=O)CC1	–	0.116 µM [falling, partial curve, poor fit]	4.59%

Compound	AC50 [1]	AC50 [2]	cell number change
CCCN(Cc1ccc(C)cc1)C(=O)c1ccc(CNS(=O)(=O)c2ccc(C(C)=O)cc2)cc1	–	29.1 µM [falling, single point]	-8.81%
COc1cc(NC(=O)C2CCC(CNS(=O)(=O)c3csc(C(N)=O)c3)CC2)cc(OC)c1 (stereo not drawn)	–	–	8.96%
C=CCC(=O)OCCCCCCOc1ccc(C(=O)O)cc1	–	3.66 µM [falling, partial curve]	-4.95%
COc1ccc(NC(=O)c2ccc(N(C)S(C)(=O)=O)cc2)cc1OC	–	5.17 µM [rising, full curve]	10.4%
CCN1C(=O)CS/C1=C(\C#N)S(=O)(=O)c1ccccc1	23.1 µM [rising, single point]	32.6 µM [falling, single point]	35.8%
CCC(Sc1nc2ncccc2[nH]1)C(=O)NC1CCC(C)CC1 (stereo not drawn)	–	29.1 µM [falling, single point]	15.3%
O=C(NCCc1ccco1)c1nn(Cc2ccccc2)c(=O)c2ccccc12	–	6.51 µM [falling, partial curve, poor fit]	-10.8%
CN1C(=O)/C(=C\c2cc(N=Nc3ccccc3)ccc2O)SC1=S	1.3 µM [falling, full curve]	0.231 µM [falling, full curve, poor fit]	-16.2%
Nc1ccn(Cc2ccccc2)n1	4.11 µM [rising, single point]	2.91 µM [rising, single point]	-10.7%
Cc1ccc2nc(C)c3c(c2c1)OC(C(C)(Cl)Br)C3 (stereo not drawn)	29.1 µM [falling, single point]	29.1 µM [falling, single point]	-51.4%
O=C(COC(=O)c1ccc(O)cc1)Nc1ccccc1-c1ccccc1	11.6 µM [rising, partial curve]	6.51 µM [rising, single point]	30.9%
Cc1ccc(C(=O)C(C)OC(=O)c2n[nH]c(=O)c3ccccc23)cc1 (stereo not drawn)	–	0.259 µM [falling, full curve, poor fit]	-1.1%
C/C(CCC(C)C)=N\Nc1ccc(S(N)(=O)=O)cc1[N+](=O)[O-]	4.61 µM [falling, single point]	–	–
CCOC(=O)[C@@H](C)N(Cc1ccc(OC)cc1)S(=O)(=O)N(Cc1ccccc1)[C@H](C(=O)OC)C(C)C	–	–	-14.8%
CN(C)c1ccc(CNCCC2CCOC(C)(C)C2)cc1 (stereo not drawn)	2.31 µM [rising, single point]	–	17.7%
COc1cc(OC)cc(-c2n[nH]c(=S)n2-c2ccc3c(c2)OCCO3)c1	4.11 µM [falling, single point]	1.03 µM [falling, partial curve, poor fit]	8.6%
COc1ccc(CCNC(=O)CN2C(=O)C(=O)N(C3CCCC3)C2=O)cc1OC	–	6.51 µM [falling, single point]	-3.29%
